Source: PMC11115250
No constants are given. Whether binding was seen depends on the method and setting. Binding seen in cells or lysates may run through a third protein. Binding can be weak; no strength is given.

Legend:
[1] = molecular target: T1, RXRα (endogenous, 3T3-L1 adipocytes) (mouse (endogenous in 3T3-L1)) (UniProt P28700); assay: co-IP; endogenous proteins, nuclear extracts of 3T3-L1 differentiated adipocytes; precipitated with anti-RXRα or anti-PPARγ antibody, matched IgG as control (Nuclear Complex Co-IP kit, Dynabeads Protein G); western blot
T1 sequence: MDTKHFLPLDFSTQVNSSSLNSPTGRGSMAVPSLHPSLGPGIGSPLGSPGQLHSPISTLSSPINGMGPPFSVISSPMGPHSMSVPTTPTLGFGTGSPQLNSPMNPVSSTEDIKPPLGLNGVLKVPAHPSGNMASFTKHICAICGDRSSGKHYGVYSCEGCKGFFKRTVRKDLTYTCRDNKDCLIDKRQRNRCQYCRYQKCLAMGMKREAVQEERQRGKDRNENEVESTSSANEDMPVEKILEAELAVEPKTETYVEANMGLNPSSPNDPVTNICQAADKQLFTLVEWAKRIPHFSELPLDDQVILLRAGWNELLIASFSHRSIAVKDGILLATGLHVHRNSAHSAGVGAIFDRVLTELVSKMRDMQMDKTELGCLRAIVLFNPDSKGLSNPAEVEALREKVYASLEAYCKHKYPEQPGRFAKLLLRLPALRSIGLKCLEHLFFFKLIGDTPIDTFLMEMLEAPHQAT

RXRα (plasmid-encoded) = molecular target: T2, RXRα (plasmid-encoded) (UniProt P28700); assay: co-IP; nuclear fractions of 293T cells co-transfected with PPARγ, ZFP407 and RXRα plasmids; precipitated with an anti-RXRα antibody (Nuclear Complex Co-IP kit, Dynabeads Protein G); western blot
T2 sequence: T1 sequence

ZFP407 (endogenous, 3T3-L1 adipocytes) (mouse (endogenous in 3T3-L1))
binding [1]: binds

ZFP407 (plasmid-encoded, Origene cat. MR214555) (mouse)
binding (RXRα (plasmid-encoded)): binds
